Changes are numbered by the printed parent chain. Names and notes keep the numbering of the source. No constants are given. Whether binding was seen depends on the method and setting. In cells and extracts the contact can be indirect. Some binding calls cover weakened binding; strength is not graded here. Each block holds one binder with its values, some of them ahead of it.
Columns and labels:
Assay in all cases: co-IP; HEK293ft cells co-transfected with Flag- and V5-tagged STAT6 (WT or D419N), with or without IL-4 for 1 h; nuclear extracts (Nuclear Complex Co-IP Kit), 250 ug per condition; Flag IP with M2 beads probed for V5, and the reciprocal V5 IP with V5 antibody and magnetic dynabeads; overnight at …; western blot
[1] = molecular target: T1, signal transducer and activator of transcription 6 (STAT6), wild type (human), P42226; conditions: remark: other sources report otherwise
T1 chain: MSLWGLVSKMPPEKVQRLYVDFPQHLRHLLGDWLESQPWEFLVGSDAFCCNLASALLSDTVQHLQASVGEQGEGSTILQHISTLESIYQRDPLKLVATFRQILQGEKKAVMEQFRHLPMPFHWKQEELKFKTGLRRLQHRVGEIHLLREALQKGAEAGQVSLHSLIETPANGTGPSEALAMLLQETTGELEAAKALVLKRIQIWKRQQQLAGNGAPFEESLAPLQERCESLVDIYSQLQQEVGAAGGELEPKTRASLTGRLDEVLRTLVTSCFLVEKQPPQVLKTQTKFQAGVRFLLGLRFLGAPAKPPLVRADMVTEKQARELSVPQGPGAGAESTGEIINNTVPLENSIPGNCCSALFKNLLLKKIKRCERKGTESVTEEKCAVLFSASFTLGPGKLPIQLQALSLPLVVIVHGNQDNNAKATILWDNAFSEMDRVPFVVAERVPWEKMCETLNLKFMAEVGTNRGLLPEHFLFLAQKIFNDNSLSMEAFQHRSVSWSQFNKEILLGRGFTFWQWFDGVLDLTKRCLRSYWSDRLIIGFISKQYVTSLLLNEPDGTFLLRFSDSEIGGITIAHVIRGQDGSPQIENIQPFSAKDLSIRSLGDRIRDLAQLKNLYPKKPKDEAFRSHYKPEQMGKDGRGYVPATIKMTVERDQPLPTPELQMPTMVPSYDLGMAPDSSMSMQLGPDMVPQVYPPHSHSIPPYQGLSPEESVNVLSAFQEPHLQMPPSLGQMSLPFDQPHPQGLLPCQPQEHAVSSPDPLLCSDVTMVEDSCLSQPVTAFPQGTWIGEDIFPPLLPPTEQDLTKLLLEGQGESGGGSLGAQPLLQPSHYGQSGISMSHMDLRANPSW

[2] = molecular target: T2, signal transducer and activator of transcription 6 (STAT6), wild type (human) (UniProt P42226)
T2 sequence: T1 chain

[3] = molecular target: signal transducer and activator of transcription 6 (STAT6) D419N (human) (UniProt P42226)

binding [1]: binds
B1: signal transducer and activator of transcription 6 (STAT6), wild type, P42226-1 1-847 (protein)
chain: T1 chain

binding [2]: binds
binding [3]: binds
B2: signal transducer and activator of transcription 6 (STAT6) D419N (protein, UniProt P42226-1 1-847)
chain: T1 chain with D419N
